For 1 molecule, binding results are on record in PMC8390553.

Protein sequences, listed by entry. Tags and fused reporters are not part of them. Lines headed by an entry give the natural chain unless they say otherwise; changes in a name come on top.
UniProt Q2NKJ3: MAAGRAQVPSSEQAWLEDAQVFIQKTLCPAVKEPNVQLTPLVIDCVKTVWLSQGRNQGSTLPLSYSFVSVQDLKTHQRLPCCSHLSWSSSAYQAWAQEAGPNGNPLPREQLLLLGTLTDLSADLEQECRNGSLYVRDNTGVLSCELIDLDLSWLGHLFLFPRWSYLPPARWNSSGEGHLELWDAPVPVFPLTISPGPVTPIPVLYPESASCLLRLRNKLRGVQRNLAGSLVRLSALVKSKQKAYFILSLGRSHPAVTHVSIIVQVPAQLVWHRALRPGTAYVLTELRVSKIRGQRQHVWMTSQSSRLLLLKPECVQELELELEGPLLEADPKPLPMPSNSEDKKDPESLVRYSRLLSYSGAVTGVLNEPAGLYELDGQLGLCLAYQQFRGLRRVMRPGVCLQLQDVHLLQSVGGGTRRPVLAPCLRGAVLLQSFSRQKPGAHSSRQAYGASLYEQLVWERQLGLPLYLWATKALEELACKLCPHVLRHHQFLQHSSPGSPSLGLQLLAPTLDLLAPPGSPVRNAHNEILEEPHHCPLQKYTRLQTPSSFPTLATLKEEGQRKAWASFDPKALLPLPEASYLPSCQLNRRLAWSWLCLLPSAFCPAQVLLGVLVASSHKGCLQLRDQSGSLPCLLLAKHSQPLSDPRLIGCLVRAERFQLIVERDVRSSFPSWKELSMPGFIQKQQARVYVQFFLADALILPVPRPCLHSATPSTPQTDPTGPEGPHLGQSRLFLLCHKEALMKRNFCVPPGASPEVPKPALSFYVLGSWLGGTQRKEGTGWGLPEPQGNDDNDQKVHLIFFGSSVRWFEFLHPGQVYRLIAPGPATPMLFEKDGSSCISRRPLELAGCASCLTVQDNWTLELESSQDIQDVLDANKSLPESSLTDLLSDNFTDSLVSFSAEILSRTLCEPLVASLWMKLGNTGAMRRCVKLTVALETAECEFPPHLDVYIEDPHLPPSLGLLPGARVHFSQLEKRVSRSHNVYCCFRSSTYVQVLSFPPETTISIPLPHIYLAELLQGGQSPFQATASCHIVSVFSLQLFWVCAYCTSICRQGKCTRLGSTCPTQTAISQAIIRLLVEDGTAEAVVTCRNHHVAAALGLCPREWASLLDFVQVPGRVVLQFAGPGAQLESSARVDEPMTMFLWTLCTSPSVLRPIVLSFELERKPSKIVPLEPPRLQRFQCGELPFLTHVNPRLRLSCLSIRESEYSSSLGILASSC
UniProt Q9H668: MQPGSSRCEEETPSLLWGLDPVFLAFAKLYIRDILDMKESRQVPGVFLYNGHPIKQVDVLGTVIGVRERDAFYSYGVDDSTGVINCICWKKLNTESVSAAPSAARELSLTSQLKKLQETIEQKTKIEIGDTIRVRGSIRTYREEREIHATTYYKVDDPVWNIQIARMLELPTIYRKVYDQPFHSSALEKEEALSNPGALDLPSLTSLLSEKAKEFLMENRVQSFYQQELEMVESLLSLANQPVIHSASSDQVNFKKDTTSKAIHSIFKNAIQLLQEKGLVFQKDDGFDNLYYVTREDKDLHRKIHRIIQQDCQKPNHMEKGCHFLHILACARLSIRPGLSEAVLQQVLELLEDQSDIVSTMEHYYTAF
UniProt Q86WV5: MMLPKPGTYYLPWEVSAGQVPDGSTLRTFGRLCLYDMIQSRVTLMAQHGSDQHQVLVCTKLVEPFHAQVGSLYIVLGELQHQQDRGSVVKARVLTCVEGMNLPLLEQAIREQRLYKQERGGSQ

The target of the experiment is CTC1-STN1-TEN1 (CST) complex, epitope-tagged, overexpressed (human) (UniProt Q2NKJ3+Q9H668+Q86WV5). The experiment is described as follows: co-IP; IP of Flag-tagged proteins from nuclease-treated lysates of HEK293T cells expressing Flag-CTC1, Flag-STN1 or the full CST complex; blots for endogenous SMC3 and SMC1A.

No constants are given. Whether binding was seen depends on the method and setting. In cells and extracts the contact can be indirect. Some entries that bind do so weakly or less than the wild type.

B1: SMC1A, endogenous (HEK293T) (protein, UniProt Q14683 1-1233)
chain: MGFLKLIEIENFKSYKGRQIIGPFQRFTAIIGPNGSGKSNLMDAISFVLGEKTSNLRVKTLRDLIHGAPVGKPAANRAFVSMVYSEEGAEDRTFARVIVGGSSEYKINNKVVQLHEYSEELEKLGILIKARNFLVFQGAVESIAMKNPKERTALFEEISRSGELAQEYDKRKKEMVKAEEDTQFNYHRKKNIAAERKEAKQEKEEADRYQRLKDEVVRAQVQLQLFKLYHNEVEIEKLNKELASKNKEIEKDKKRMDKVEDELKEKKKELGKMMREQQQIEKEIKEKDSELNQKRPQYIKAKENTSHKIKKLEAAKKSLQNAQKHYKKRKGDMDELEKEMLSVEKARQEFEERMEEESQSQGRDLTLEENQVKKYHRLKEEASKRAATLAQELEKFNRDQKADQDRLDLEERKKVETEAKIKQKLREIEENQKRIEKLEEYITTSKQSLEEQKKLEGELTEEVEMAKRRIDEINKELNQVMEQLGDARIDRQESSRQQRKAEIMESIKRLYPGSVYGRLIDLCQPTQKKYQIAVTKVLGKNMDAIIVDSEKTGRDCIQYIKEQRGEPETFLPLDYLEVKPTDEKLRELKGAKLVIDVIRYEPPHIKKALQYACGNALVCDNVEDARRIAFGGHQRHKTVALDGTLFQKSGVISGGASDLKAKARRWDEKAVDKLKEKKERLTEELKEQMKAKRKEAELRQVQSQAHGLQMRLKYSQSDLEQTKTRHLALNLQEKSKLESELANFGPRINDIKRIIQSREREMKDLKEKMNQVEDEVFEEFCREIGVRNIREFEEEKVKRQNEIAKKRLEFENQKTRLGIQLDFEKNQLKEDQDKVHMWEQTVKKDENEIEKLKKEEQRHMKIIDETMAQLQDLKNQHLAKKSEVNDKNHEMEEIRKKLGGANKEMTHLQKEVTAIETKLEQKRSDRHNLLQACKMQDIKLPLSKGTMDDISQEEGSSQGEDSVSGSQRISSIYAREALIEIDYGDLCEDLKDAQAEEEIKQEMNTLQQKLNEQQSVLQRIAAPNMKAMEKLESVRDKFQETSDEFEAARKRAKKAKQAFEQIKKERFDRFNACFESVATNIDEIYKALSRNSSAQAFLGPENPEEPYLDGINYNCVAPGKRFRPMDNLSGGEKTVAALALLFAIHSYKPAPFFVLDEIDAALDNTNIGKVANYIKEQSTCNFQAIVISLKEEFYTKAESLIGVYPEQGDCVISKVLTFDLTKYPDANPNPNEQ
In the case of B1, the binding result is given as “binds”.
